Measurements from publication doi:10.1101/2020.06.07.137802 (bioRxiv, 2020).
These are yes or no findings as the source states them, for the method shown. Some binding calls cover weakened binding; strength is not graded here.

Amino acid sequences for entries named in this document (tags omitted). Residues count along the entry.
UniProt O14786, residues 22-923: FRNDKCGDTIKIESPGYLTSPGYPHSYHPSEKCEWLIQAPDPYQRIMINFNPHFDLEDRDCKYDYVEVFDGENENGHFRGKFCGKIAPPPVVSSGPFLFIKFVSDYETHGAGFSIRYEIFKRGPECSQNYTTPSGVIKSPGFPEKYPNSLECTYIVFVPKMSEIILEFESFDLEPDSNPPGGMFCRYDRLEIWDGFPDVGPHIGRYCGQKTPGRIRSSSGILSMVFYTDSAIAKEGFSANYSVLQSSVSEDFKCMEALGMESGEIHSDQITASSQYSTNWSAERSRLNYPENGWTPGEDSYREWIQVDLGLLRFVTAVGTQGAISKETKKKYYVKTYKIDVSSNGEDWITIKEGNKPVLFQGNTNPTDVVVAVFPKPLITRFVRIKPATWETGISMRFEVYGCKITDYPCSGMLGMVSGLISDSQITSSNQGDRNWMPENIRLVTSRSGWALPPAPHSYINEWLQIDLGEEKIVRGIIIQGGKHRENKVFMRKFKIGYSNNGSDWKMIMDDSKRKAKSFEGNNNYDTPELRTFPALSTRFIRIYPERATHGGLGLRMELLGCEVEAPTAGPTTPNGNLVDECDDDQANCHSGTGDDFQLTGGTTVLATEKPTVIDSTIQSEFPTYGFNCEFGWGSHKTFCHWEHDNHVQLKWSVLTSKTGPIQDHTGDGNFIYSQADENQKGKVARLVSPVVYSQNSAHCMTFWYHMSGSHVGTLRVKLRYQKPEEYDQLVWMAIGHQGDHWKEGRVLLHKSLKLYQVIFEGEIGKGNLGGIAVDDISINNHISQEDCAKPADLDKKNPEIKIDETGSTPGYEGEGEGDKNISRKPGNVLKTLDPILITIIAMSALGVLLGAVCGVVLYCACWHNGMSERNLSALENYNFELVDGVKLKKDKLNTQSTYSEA

Columns and labels:
[1] = biological target: neuropilin-1 (NRP1), expressed in HEK-293T cells (human) (UniProt O14786); experiment: confocal microscopy of fluorescent peptide-coated silver nanoparticles on cells
[2] = biological target: neuropilin-1 (NRP1), endogenous on PPC1 cells (human (endogenous in PPC-1)) (UniProt O14786); experiment: as above

## RPARPAR (biotin-Ahx on the N-terminus; free C-terminal carboxyl (OH)) [biotin-Ahx-RPARPAR-OH, prototypic NRP1-binding CendR peptide, on silver nanoparticles (AgNP-CendR)]
[1]
  binding: binds
[2]
  binding: binds
